# Measurements published in PubChem BioAssay AID624297 (National Center for Advancing Translational Sciences (NCATS), 2012).
# In all, about 340,000 compounds went through this assay and about 6,200 (1.8%) were called active. Inconclusive results, whose numbers are uncertain, are shown with a selection of clear calls. The call rests on the fitted dose curve; in most records, active means well fitted activation curve with a large enough effect; inconclusive means small, poorly fitted or top-dose-only effect; inactive means no such curve, though single readings can be large or run the other way. Potencies beside an inconclusive call are fits to weak or partial responses and may not hold up.
# Experiment: A quantitative high throughput screen for small molecules that induce DNA re-replication in SW480 colon adenocarcinoma cells. Further: nearly all actives have a fitted effect of over 55% in size. On re-replication activation: % of control where 0% means no effect.
# Conditions: Hoechst DNA content imaging, 48 h; re-replication activation: at 46.1 µM (top of the series) unless noted
# How it was run: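 Quantitative HTS format with DMSO vehicle controls; 48 hr drug incubation at 37 C, then 40 min Hoechst staining and scanning imager measurement at 405 nm excitation.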
# Potency means the concentration at half of the fitted maximal effect.
Structure (SMILES),Potency,re-replication activation
CN(C)/C=C1/OC(=O)C(C#N)=C1c1ccc(Cl)cc1,"inconclusive: 0.0046 µM [activator, full curve, poor fit]",
COc1ccc(OC)c(C2=NOC(C(=O)NCc3cccs3)C2)c1 (stereo unspecified),"inconclusive: 29.1 µM [activator, single point]",
CS(=O)(=O)N(CC(=O)Nc1c(F)cccc1F)c1ccc(C23CC4CC(CC(C4)C2)C3)cc1,inactive,
COc1ccc(/C=N/OCC(=O)Nc2ccc3c(c2)OCO3)c(OC)c1,"inconclusive: 0.731 µM [activator, full curve, poor fit]",
Cn1nc(C(=O)OCC(=O)NCCc2ccccc2)c2ccccc2c1=O,"inconclusive: 29.1 µM [activator, single point]",
CCOC(=O)N1CCN(CCC(=O)c2ccc(Cl)cc2)CC1,"inconclusive: 29.1 µM [activator, single point]",
CCc1nc(Nc2ccc(OC)cc2OC)c2oc3ccccc3c2n1,"inconclusive: 29.1 µM [activator, single point]",
Cc1[nH]c2ccc(C(=O)NCCN3CCOCC3)cc2c1C,,inconclusive: -28.3% [activator]
Cc1ccnc(N2CCN(C(=O)CSc3nc4ccccc4nc3N3CCC(C)CC3)CC2)c1,"inconclusive: 32.6 µM [activator, single point]",
CCc1cc2c(=O)[nH]c(N3CCCC3)nc2s1,"inconclusive: 0.291 µM [activator, full curve, poor fit]",
COc1ccccc1NC(=O)Nc1ccc2c(c1)CCC2,inactive,
O=C(Nc1cc(S(=O)(=O)N2CCCCC2)ccc1Cl)C1=NN(c2ccccc2)C(=O)CC1,"inconclusive: 3.16 µM [activator, single point]",
CCN(CC)c1nc(NN)nc(Nc2ccc(C)c(Cl)c2)n1,"inconclusive: 29.1 µM [activator, partial curve, poor fit]",
Oc1ccc(C[C@@H]2CNCCN2CCc2cc(C(F)(F)F)cc(C(F)(F)F)c2)cc1,inactive,
COc1ccccc1NC(=O)CSc1nnc2ccc(-c3cccnc3)nn12,"inconclusive: 9.2 µM [activator, partial curve, poor fit]",
NC(=O)C1(N2CCCCC2)CCN(CC(=O)Nc2ccccc2Sc2ccccc2)CC1,inactive,
O=c1cc(-c2ccc(O)c(O)c2)oc2ccc3ccccc3c12,"inconclusive: 29.1 µM [activator, single point]",
CCCc1ccc(-c2cc(N)n[nH]2)cc1,inactive,
COc1ccc(C2=C(C=C(C#N)C#N)C(c3ccccc3C)c3ccccc3O2)cc1OC (stereo unspecified),"inconclusive: 0.326 µM [activator, full curve, poor fit]",
O=C(COc1ccc(Cl)cc1)NCc1nnc(SCC(=O)NCC2CCCO2)o1 (stereo unspecified),"inconclusive: 23.1 µM [activator, partial curve, poor fit]",
O=C(NC1CCCC1)C(c1ccncc1)N(C(=O)c1csnn1)c1cccc(F)c1 (stereo unspecified),"inconclusive: 16.4 µM [activator, partial curve, poor fit]",

Structure (SMILES),Potency,re-replication activation
O=C(c1cccc(Cl)c1)N1CCC(=O)N(C(COCc2cccc(Cl)c2)Cc2ccccc2)CC1 (stereo unspecified),"inconclusive: 29.1 µM [activator, single point]",
CCCC(C(=O)NC1CCCC1)N(Cc1ccccc1Cl)C(=O)c1snc(C(N)=O)c1N (stereo unspecified),"inconclusive: 20.6 µM [activator, partial curve, poor fit]",
O=C1NC(=S)S/C1=C\c1ccc(SCc2ccccc2)o1,"inconclusive: 18.4 µM [activator, single point]",
O=C(CN(Cc1ccc(Cl)c(Cl)c1)S(=O)(=O)c1ccccc1)N/N=C\c1ccc2c(c1)OCO2,"inconclusive: 29.1 µM [activator, partial curve, poor fit]",
CCCN1CCN(CCCNC(=O)c2cc3c(s2)-c2ccccc2OC3)CC1,"inconclusive: 23.1 µM [activator, single point]",
O=C(Nc1ccc(-c2nc3ncccc3o2)cc1)c1ccc(Br)o1,"inconclusive: 29.1 µM [activator, partial curve, poor fit]",
Cc1ccc(-c2nn(-c3ccccc3)cc2C(=O)N2CCN(c3ccccn3)CC2)cc1,"inconclusive: 18.4 µM [activator, single point]",
Cc1ccc(-n2nnnc2CCl)cc1,"inconclusive: 29.1 µM [activator, single point]",
COc1ccc2cc3cc(C(=O)NCCN4CCN(c5ccccc5F)CC4)oc3nc2c1,"inconclusive: 20.6 µM [activator, partial curve, poor fit]",
CCOC(=O)/C(=C/C=C1\Sc2ccccc2N1CC)C(C)=O,inactive,
CCC(C)Sc1ccc([C@@H]2[C@H]3C(=O)N(CC)C(=O)[C@H]3[C@]3(C(=O)OC)CCCCN23)cc1 (stereo partly specified),"inconclusive: 0.0046 µM [activator, full curve, poor fit]",
c1ccc(Nc2cccc(Nc3ccccc3)c2)cc1,"inconclusive: 20.6 µM [activator, partial curve, poor fit]",
Cc1nsc2nc3c(F)c(F)c(F)c(F)c3cc12,"inconclusive: 29.1 µM [activator, single point]",
COc1cccc(-c2csc(N3CCN(C(=O)NC45CC6CC(CC(C6)C4)C5)CC3)n2)c1,"inconclusive: 29.1 µM [activator, partial curve, poor fit]",
Cc1cc(C)c(S(C)(=O)=O)c(=O)[nH]1,inactive,
CCc1ccc2ncc(S(=O)(=O)c3ccc(C)c(C)c3)c(N3CCCC3)c2c1,inactive,
O=C(c1cccc(Br)c1)N1CCN(S(=O)(=O)N2CCCCC2)CC1,inactive,
O=[N+]([O-])c1ccc(-c2nc(-c3cccs3)c(-c3cccs3)[nH]2)cc1,"inconclusive: 29.1 µM [activator, single point]",
Cc1nn(-c2ccccc2)c2c1c(C)c(CCC(=O)N1CCOCC1)c(=O)n2C,inactive,
Cc1noc(C)c1NC(=O)N(C)C[C@H]1Oc2c(NC(=O)Nc3ccccc3)cccc2C(=O)N([C@H](C)CO)C[C@@H]1C,"inconclusive: 0.517 µM [activator, full curve, poor fit]",

# 3 compounds already listed, sorted by molar mass, low to high.
Structure (SMILES),Potency,re-replication activation
O=C(Nc1ccc(-c2nc3ncccc3o2)cc1)c1ccc(Br)o1,"inconclusive: 29.1 µM [activator, partial curve, poor fit]",
COc1cccc(-c2csc(N3CCN(C(=O)NC45CC6CC(CC(C6)C4)C5)CC3)n2)c1,"inconclusive: 29.1 µM [activator, partial curve, poor fit]",
O=C(c1cccc(Cl)c1)N1CCC(=O)N(C(COCc2cccc(Cl)c2)Cc2ccccc2)CC1 (stereo unspecified),"inconclusive: 29.1 µM [activator, single point]",
